{"source": "patent US20070172509A1", "about": "“Drug Delivery System for Retarding Release of Water Soluble Drugs” (Conor Medsystems, Inc., priority 2006, published 2007)", "experiment": "Film morphology of agent in PLGA 85/15 film cast from anisole", "assay_type": "physicochemical", "parameters": "key: A—Amorphous; D—Dispersion; C—Crystalline", "note": "At least one structure is not confirmed: it was looked up by name or label, or the drawing left a doubt."}
{"smiles": "CCCCOC(=O)CC(CC(=O)OCCCC)(OC(C)=O)C(=O)OCCCC", "note": "[ATBC, acetyl tributylcitrate]", "values": [{"measurement": "Film Morphology", "setting": "5% agent in PLGA 85/15 film cast from anisole", "result": "A"}, {"measurement": "Film Morphology", "setting": "10% agent in PLGA 85/15 film cast from anisole", "result": "A"}]}
